1 substance from patent publication US20080317767A1 (priority 2004, published 2008) can be followed below.

Series [1] can be described thus: general procedure: Fmoc solid-phase peptide synthesis; Fmoc-PAL-PEG-PS amide resin; Sieber amide resin; HBTU or HATU. The settings on record: whole synthesis, MS-trace, scale of the general procedure 0.25 mmol, 0.1 mmol.
Series [2] can be described thus: general procedure: Fmoc solid-phase peptide synthesis; PAL-PEG-PS; HBTU or HATU. The settings on record: whole synthesis, scale 0.1 mmol.

[ ]: non-standard residue; d: D form. The star is where a group is joined. Piperazinyl(4-RhodamineB) = CCN(CC)c1ccc2c(-c3ccccc3C(=O)N3CCN(*)CC3)c3ccc(=[N+](CC)CC)cc-3oc2c1; X1 = CC(C)CCC[C@@H](C)[C@H]1CCC2C3CCC4C[C@@H](O*)CC[C@]4(C)C3CC[C@@]21C; Sta = CC(C)C[C@H](N)[C@@H](O)CC(=O)O; βAla = NCCC(=O)O

In turn, “H-E(Piperazinyl(4-RhodamineB))[βAla]GEVN[Sta]VAEFRHDSGYEVHHQKLVFFAEDVGSNKD(X1)-NH2” displayed a final ms purity in series [1] of 80.9%. In series [2], this substance gave an isolated mass of 12.7 mg.
